Laboratory results: publication PMC13155533, “The secreted protein PCYOX1L controls the surface expression of acid-sensing ion channel 1a” (Science Advances, 2025)

Amino acid sequences for entries named in this document (tags omitted).
UniProt Q925H0: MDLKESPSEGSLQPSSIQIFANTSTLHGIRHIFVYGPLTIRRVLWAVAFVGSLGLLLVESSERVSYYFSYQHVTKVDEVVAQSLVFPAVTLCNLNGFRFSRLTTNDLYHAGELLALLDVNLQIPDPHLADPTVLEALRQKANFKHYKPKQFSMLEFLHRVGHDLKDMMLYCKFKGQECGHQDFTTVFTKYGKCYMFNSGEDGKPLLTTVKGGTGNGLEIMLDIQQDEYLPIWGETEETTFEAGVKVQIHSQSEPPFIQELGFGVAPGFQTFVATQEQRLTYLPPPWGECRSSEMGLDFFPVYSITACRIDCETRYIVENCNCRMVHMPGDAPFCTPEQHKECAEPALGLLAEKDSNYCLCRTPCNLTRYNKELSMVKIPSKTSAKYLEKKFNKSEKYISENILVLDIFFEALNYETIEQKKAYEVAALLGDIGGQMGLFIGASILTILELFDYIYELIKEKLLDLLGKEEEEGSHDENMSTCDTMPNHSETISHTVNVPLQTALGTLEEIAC

T1: Acid-sensing ion channel 1a (ASIC1a), endogenous in mouse brain (mouse (endogenous in brain)) (UniProt Q6NXK8)
T1 sequence: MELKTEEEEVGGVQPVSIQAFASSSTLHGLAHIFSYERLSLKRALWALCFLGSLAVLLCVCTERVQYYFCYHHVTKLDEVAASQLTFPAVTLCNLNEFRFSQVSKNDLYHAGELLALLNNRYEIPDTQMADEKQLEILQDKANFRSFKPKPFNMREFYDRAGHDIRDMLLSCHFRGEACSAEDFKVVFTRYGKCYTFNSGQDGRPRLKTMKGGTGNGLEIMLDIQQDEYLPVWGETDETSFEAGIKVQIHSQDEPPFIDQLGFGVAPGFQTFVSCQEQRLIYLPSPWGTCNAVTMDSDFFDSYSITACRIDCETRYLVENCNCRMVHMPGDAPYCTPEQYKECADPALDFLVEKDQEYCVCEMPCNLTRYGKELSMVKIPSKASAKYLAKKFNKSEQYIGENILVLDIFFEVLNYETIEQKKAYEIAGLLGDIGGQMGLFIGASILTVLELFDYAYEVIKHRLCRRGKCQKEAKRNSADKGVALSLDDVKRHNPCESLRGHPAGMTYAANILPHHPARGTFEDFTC

B1: ASIC4, endogenous in mouse brain (protein, UniProt Q7TNS7 1-539)
chain: MPIEIVCKIKFAEEDAKPKEKEAGDEQSLLGAAQGPAAPRDLATFASTSTLHGLGRACGPGPHGLRRTLWALALLTSLAAFLYQAASLARGYLTRPHLVAMDPAAPAPVAGFPAVTLCNINRFRHSALSDADIFHLANLTGLPPKDRDGHRAAGLRYPEPDMVDILNRTGHQLADMLKSCNFSGHHCSASNFSVVYTRYGKCYTFNADPQSSLPSRAGGMGSGLEIMLDIQQEEYLPIWRETNETSFEAGIRVQIHSQEEPPYIHQLGFGVSPGFQTFVSCQEQRLTYLPQPWGNCRAESELREPELQGYSAYSVSACRLRCEKEAVLQRCHCRMVHMPGNETICPPNIYIECADHTLDSLGGGSEGPCFCPTPCNLTRYGKEISMVKIPNRGSARYLARKYNRNETYIRENFLVLDVFFEALTSEAMEQQAAYGLSALLGDLGGQMGLFIGASILTLLEILDYIYEVSWDRLKRVWRRPKTPLRTSTGGISTLGLQELKEQSPCPSRGRAEGGGASSLLPNHHHPHGPPGSLFEDFAC
B2: prenylcysteine oxidase 1 like (PCYOX1L), endogenous in mouse brain (protein, UniProt Q8C7K6 23-495)
chain: DAPPGKIAVIGAGIGGSAVAHFLQQHFGPRVQIVVYEKGTVGGRLATISVNKQNYESGAASFHSLSLHMQDFVKLLGLRQRREVVGRSAIFGGEHFVLEETDWYLLNLFRLWWYYGISFLRLQMWVEEVMEKFMRIYKYQAHGYAFSGVEELLYSLGEATFVNMTQRSVAESLLQVGVTQRFIDDVVSAVLRASYGQSASMPAFAGAMSLAGAQGNLWSVEGGNKLVCSGLLKLAKATVIHATVTSVTLHSTEGKALYQVAYESDKGNSSDFYDIVVIATPLHLDNSSNNNITFEGFTPPIEDIQGSFQPTVVSLVHGYLNSSYFGFPDPKLFPFANILTTDFPSFFCTLDNICPVNISASFRRKQPQEAAVWRVQSPKPLFRTELKTLFRSYYSVQTAEWQAHPLYGSRRTLPRFALHDQLFYLNALEWAASSVEVTAVAAKNVALLAYNRWYQDLDKIDQKDLIHKVKTEL
B3: prenylcysteine oxidase 1 (PCYOX1), endogenous in mouse brain (protein, UniProt Q9CQF9 29-505)
chain: EPRAPPNRIAIVGAGIGGTSSAYYLRKKFGKDVKIDVFEREEVGGRLATLKVQGHDYEAGGSVIHPLNLHMKRFVKELGLSSVPASGGLVGVYNGKSLVFEESSWFVINVIKLVWRYGFQSLRMHMWVEDLLDKFMRIYRYQSHDYAFSSVEKLMHAIGGDDYVRLLNQTLRENLKKAGFSETFLNEMIAPVMKVNYGQSTDINAFVGAVSLTAADSNLWAVEGGNKIVCSGLLQASSSNLISGSVMSIEEKTRTKQTGNPTKMYEVVYKTGSETHSDFYDIVLVAAPLNRKMSNITFRNFDPPIEEFNDPYQQLVTTFIKGELNSTLFSSRPKDQFGLSAILVTDDSDMFINSLSIVASVRQKEGPPPAVDGMHVWKTFSRDILTKEQISKLFLSYDYAVRKPWLSYPHYEPPQKCPSIILHDRLYYLNGIEFAASCMEMSAIAGYNAALLAYHRWNGNEDMIDQDDLYERLKTEL

Molecular target: T1, Acid-sensing ion channel 1a (ASIC1a), endogenous in mouse brain (mouse (endogenous in brain))
Assay: affinity purification with mass spectrometry; two immobilised ASIC1-specific antibodies (OAAB05862 AvivaSysBio; AGP-053 Alomone) on CL-87 solubilized membrane fractions of whole brains of Asic1+/+ and Asic1-/- mice, 2 hours at 4°C; LC-MS/MS

Row | Molecule | binding
1 | ASIC2, endogenous in mouse brain (from UniProt Q925H0 1-512) | binds
2 | B1 | binds
3 | B2 | binds
4 | B3 | no binding

Results are given in words; binding and its absence hold for the method and conditions named. Binding seen in cells or lysates may run through a third protein. These calls come from enrichment with a bait or labelling near it, and not all partners need be listed. No binding means not detected with the bait.
